Source: PubChem BioAssay (EPA / NIEHS)
The inconclusive results got no clear call from the source; some entries with a clear call stand among them for comparison. For part of these data: Potencies of inconclusive entries are doubtful fits and often do not repeat. Active and inactive are the calls of the source. How the source made its calls: active means hit-call score of the fitted dose curve at least 0.9, where 1 is the maximum; inconclusive means response in the unintended direction; inactive means score below 0.9.

Protein sequences, listed by entry. Tags and fused reporters are not part of them. Lines headed by an entry give the natural chain unless they say otherwise; changes in a name come on top.
UniProt Q9HCS2: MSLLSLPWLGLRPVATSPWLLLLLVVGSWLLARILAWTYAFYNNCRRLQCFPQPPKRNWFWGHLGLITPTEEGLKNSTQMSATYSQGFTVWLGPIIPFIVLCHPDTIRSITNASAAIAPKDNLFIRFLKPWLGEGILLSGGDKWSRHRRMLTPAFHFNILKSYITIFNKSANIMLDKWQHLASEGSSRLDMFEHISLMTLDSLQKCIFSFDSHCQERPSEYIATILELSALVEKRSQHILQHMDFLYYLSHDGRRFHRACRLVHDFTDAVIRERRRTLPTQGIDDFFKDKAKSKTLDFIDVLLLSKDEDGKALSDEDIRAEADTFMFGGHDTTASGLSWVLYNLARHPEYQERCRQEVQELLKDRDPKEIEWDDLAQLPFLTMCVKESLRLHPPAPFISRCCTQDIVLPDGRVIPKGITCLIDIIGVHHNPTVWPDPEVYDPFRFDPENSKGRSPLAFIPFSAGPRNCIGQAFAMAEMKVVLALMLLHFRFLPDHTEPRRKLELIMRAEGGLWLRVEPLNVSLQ
UniProt P62136, whole entry, looked up: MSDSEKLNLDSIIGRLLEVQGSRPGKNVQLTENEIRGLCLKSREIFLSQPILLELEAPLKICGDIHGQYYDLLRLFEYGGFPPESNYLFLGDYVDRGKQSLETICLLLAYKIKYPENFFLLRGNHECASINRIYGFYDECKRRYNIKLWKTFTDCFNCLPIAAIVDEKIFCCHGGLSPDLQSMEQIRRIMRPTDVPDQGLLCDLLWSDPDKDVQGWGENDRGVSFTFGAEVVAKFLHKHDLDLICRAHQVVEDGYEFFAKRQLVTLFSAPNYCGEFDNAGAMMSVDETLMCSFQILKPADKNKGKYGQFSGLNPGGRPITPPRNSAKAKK
UniProt P29350: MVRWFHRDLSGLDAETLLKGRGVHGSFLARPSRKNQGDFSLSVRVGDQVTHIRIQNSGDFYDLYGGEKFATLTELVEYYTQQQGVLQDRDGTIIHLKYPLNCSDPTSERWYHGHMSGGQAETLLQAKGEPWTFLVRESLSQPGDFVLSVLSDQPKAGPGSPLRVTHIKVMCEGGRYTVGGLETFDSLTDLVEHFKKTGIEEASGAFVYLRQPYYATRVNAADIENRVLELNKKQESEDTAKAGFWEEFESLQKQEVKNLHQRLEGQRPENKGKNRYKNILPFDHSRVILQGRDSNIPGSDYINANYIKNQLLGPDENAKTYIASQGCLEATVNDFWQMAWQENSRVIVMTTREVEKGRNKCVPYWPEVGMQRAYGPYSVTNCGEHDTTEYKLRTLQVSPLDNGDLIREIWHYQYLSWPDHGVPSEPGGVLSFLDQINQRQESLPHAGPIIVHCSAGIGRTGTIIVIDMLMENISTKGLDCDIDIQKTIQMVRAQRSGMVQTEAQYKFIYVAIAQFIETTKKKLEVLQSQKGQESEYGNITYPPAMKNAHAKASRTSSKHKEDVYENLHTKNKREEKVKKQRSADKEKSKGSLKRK
UniProt Q14994: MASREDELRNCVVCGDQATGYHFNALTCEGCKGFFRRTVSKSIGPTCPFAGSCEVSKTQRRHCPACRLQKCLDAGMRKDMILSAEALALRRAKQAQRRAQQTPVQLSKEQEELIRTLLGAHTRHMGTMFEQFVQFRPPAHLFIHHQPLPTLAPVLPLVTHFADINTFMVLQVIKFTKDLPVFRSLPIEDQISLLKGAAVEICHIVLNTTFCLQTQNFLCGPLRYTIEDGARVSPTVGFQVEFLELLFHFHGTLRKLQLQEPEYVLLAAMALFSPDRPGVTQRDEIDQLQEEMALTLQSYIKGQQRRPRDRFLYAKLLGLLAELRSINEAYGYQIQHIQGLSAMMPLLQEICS
UniProt P10276, whole entry, looked up: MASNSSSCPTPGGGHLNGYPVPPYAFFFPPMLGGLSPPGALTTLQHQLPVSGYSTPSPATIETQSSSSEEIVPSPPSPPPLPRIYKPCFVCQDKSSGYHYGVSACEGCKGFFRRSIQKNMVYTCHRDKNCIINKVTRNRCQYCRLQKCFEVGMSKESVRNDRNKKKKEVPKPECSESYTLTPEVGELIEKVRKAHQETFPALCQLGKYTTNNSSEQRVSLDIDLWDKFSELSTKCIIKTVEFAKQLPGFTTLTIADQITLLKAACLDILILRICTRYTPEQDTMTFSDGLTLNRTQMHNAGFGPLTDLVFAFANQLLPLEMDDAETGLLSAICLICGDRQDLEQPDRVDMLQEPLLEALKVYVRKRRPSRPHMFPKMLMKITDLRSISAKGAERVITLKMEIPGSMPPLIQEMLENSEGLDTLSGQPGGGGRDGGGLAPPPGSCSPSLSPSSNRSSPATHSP
UniProt P31749: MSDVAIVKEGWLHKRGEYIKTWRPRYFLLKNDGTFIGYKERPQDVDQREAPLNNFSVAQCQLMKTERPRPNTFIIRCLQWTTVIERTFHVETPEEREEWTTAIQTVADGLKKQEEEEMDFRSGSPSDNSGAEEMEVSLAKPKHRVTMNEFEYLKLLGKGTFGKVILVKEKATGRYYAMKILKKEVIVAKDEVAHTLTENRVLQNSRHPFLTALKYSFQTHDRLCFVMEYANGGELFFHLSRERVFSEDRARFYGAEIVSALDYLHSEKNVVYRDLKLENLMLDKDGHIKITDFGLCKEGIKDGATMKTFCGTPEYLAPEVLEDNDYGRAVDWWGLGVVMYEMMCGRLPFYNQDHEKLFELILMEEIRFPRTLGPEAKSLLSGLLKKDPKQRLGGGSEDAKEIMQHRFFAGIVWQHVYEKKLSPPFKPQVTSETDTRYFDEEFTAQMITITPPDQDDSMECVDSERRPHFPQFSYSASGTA
UniProt P11511: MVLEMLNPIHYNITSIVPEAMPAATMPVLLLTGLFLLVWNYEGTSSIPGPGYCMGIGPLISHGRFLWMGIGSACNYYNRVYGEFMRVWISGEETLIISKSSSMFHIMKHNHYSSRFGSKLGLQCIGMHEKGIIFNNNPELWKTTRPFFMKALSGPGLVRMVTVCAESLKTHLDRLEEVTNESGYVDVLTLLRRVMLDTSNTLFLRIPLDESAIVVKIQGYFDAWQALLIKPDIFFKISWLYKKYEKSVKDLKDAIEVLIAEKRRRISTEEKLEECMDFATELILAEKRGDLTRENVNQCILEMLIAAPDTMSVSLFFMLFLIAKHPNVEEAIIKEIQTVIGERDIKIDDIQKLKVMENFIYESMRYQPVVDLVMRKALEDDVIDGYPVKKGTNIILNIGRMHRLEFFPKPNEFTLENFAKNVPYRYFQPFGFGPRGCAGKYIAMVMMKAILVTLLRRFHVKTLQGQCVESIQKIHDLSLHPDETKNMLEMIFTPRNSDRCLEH
UniProt Q8IXJ6: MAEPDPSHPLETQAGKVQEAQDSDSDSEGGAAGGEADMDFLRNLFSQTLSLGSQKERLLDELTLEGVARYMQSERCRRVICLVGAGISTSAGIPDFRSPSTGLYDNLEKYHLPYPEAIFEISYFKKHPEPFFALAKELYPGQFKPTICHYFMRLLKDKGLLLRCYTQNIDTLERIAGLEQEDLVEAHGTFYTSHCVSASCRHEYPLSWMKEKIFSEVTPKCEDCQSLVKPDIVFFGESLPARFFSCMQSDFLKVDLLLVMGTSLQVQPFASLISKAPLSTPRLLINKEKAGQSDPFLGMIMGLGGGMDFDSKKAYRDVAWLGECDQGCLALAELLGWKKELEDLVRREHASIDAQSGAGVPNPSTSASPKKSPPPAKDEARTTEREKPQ
UniProt P08684, whole entry, looked up: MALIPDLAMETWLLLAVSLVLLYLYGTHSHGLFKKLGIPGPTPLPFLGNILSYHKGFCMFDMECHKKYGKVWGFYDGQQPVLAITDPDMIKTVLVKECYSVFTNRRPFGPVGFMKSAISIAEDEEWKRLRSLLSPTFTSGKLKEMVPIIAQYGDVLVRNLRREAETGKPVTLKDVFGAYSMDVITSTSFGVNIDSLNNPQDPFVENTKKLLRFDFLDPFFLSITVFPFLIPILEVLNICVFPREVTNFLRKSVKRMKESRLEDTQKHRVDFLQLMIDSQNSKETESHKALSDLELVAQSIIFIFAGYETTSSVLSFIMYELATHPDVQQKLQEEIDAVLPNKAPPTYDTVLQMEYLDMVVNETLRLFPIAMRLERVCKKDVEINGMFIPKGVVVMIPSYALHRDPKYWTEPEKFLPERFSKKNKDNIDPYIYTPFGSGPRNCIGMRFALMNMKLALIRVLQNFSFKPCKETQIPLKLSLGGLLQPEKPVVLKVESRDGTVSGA
UniProt P20813: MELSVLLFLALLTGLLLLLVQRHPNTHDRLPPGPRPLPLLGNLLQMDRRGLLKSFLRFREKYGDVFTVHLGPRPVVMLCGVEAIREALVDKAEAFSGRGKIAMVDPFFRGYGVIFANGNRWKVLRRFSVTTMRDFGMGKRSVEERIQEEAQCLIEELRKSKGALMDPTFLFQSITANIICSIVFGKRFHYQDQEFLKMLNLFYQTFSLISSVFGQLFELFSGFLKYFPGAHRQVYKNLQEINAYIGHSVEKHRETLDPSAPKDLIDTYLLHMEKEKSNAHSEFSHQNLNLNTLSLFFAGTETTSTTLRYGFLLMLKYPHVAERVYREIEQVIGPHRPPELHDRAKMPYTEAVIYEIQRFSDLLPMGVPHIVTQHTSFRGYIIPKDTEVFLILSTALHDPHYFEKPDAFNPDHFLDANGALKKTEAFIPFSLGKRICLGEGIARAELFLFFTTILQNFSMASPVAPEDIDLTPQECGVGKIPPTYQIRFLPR
UniProt P10275: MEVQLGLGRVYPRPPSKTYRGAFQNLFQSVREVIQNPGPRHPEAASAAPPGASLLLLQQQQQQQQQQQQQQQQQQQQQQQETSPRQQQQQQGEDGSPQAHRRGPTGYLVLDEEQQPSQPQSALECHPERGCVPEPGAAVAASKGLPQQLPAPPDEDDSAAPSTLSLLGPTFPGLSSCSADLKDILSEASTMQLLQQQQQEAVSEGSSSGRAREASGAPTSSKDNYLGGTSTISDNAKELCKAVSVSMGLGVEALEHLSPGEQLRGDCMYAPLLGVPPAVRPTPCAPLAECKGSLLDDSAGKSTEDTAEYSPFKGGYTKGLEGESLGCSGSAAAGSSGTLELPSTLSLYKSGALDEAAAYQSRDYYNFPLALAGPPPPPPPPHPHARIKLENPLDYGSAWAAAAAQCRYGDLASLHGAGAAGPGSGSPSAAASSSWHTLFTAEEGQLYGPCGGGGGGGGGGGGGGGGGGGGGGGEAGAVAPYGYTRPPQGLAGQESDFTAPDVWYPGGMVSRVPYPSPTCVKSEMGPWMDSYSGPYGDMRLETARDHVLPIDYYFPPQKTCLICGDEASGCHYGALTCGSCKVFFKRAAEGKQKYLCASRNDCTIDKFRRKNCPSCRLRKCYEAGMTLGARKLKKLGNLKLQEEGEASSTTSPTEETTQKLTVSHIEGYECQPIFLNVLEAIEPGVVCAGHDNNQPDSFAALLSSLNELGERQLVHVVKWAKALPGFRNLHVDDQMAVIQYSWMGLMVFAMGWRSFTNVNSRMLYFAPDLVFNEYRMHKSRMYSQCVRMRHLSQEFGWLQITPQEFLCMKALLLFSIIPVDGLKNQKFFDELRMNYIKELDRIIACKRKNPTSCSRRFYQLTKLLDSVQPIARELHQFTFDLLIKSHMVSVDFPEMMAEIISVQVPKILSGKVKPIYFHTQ

What was measured:
[1] = target: human CYP4F12, CYP4F12 (gene 66002) (UniProt Q9HCS2); assay: NVS_ADME_hCYP4F12: NovaScreen (NVS) CYP450-related Enzyme Activity (ADME) Assay for human CYP4F12 (AID 2283111)
Outline: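 Recombinant enzyme with a fluorescent substrate, signal read at 0.5 h post-dose; activity loss analysed relative to acetonitrile. Compounds first run in duplicate at 10 uM, with follow-up concentration-response testing of actives.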

[2] = target: Serine/threonine-protein phosphatase PP1-alpha catalytic subunit (Homo sapiens) (UniProt P62136); assay: NVS_ENZ_hPPP1CA: NovaScreen (NVS) Enzymatic Assay for human Protein Phosphatase 1 Aatalytic subunit Alpha (PPP1CA) (AID 2283200)
Outline: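 Chemicals were first screened in duplicate at 25 uM, and those passing threshold (e.g. 30% inhibition) were run as concentration series to 50 uM. Cell-free recombinant protein, 1.33 h read, fluorescent substrate/product mobility-shift detection, normalised to DMSO.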

[3] = target: human Protein Tyrosine Phosphatase Non-receptor Type 6 (PTPN6), PTPN6 (gene 5777) (UniProt P29350); assay: NVS_ENZ_hPTPN6: NovaScreen (NVS) Enzymatic Assay for human Protein Tyrosine Phosphatase Non-receptor Type 6 (PTPN6) (AID 2283210)
Outline: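 Recombinant human PTPN6 from SF9 cells, enzyme activity followed by fluorescence after mobility-shift separation of substrate and product at 1.33 h. Chemicals first tested at a single 25 uM in duplicate, then confirmed across concentration series; loss of signal relative to DMSO.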

[4] = target: human Constitutive Androstane Receptor (CAR), NR1I3 (gene 9970) (UniProt Q14994); assay: NVS_NR_hCAR_Antagonist: NovaScreen (NVS) Nuclear Receptor Binding Assay for human Constitutive Androstane Receptor Antagonism (CAR) (AID 2283344)
Outline: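 Single 25 uM duplicate primary screen, with concentration-series follow-up on actives. Cell-free binding format run in antagonist mode, TR-FRET signal taken 1 h post-dose; activity is signal loss relative to DMSO.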

[5] = target: Retinoic acid receptor alpha (Homo sapiens) (UniProt P10276); assay: NVS_NR_hRAR_Antagonist: NovaScreen (NVS) Nuclear Receptor Binding Assay for human Retinoic Acid Alpha Receptor Antagonism (RAR) (AID 2283358)
Outline: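 RARalpha antagonism was read by TR-FRET as loss of binding signal versus DMSO, 2 h after chemical addition, in a biochemical format. Single-concentration duplicates (25 uM) were run first, and actives were retested in concentration series.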

[6] = read-out: glucuronosyltransferase (UGT1A1), UGT1A1 (gene 54658); assay: CLD_UGT1A1_24hr: CellzDirect (CLD) Gene Expression Assay for glucuronosyltransferase (UGT1A1) at 24 hours (AID 2283696)
Outline: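 UGT1A1 transcript induction was measured by quantitative nuclease protection assay (chemiluminescence) in human hepatocyte cultures 24 h after daily fresh dosing, with 0.2% DMSO as vehicle and baseline.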

[7] = target: human AKT serine/threonine Kinase 1 (AKT1), AKT1 (gene 207) (UniProt P31749); assay: NVS_ENZ_hAKT1: NovaScreen (NVS) Enzymatic Assay for human AKT serine/threonine Kinase 1 (AKT1) (AID 2283138)
Outline: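 A biochemical assay with recombinant enzyme and specific substrate, read by fluorescence intensity with mobility-shift separation 1 hour after dosing. Actives from 25 uM duplicate screening were titrated up to 50 uM against DMSO baseline.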

[8] = Tanguay_ZF_120hpf_AXIS_legacy: (Legacy) Oregon State University Tanguay Lab 120 Hour Post-fertilization zebrafish Assay for Body Axis Malformation (AID 2283635);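 on AC50: potency for an increased fraction of larvae scored with body axis malformation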
Outline: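 Tropical 5D wild-type zebrafish embryos, dechorionated with pronase at 4 hpf, were placed singly in wells at 6 hpf and exposed statically to test chemical (0.64% DMSO final) at 28C until 120 hpf, then scored by brightfield for body axis defects.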

[9] = read-out: alkyl and aryl transferase (GSTA2), GSTA2 (gene 2939); assay: CLD_GSTA2_48hr: CellzDirect (CLD) Gene Expression Assay for alkyl and aryl transferase (GSTA2) at 48 hours (AID 2283708);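 further: active means mRNA induction above DMSO vehicle baseline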
Outline: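 GSTA2 mRNA quantified by qNPA chemiluminescence in human primary hepatocyte lysates after 48 h of daily fresh chemical dosing. Increases fitted against 0.2% DMSO vehicle baseline; cytotoxicity from morphology annotated yes/no.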

[10] = target: human CYP19A1, CYP19A1 (gene 1588) (UniProt P11511); assay: NVS_ADME_hCYP19A1: NovaScreen (NVS) CYP450-related Enzyme Activity (ADME) Assay for human CYP19A1 (AID 2283098)
Outline: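 Primary testing was in duplicate at a single 10 uM concentration, with actives followed up in concentration-response series. Fluorescence read-out of recombinant enzyme activity at 0.5 h, cell-free. Acetonitrile was the negative-control baseline.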

[11] = target: human Sirtuin 2 (SIRT2), SIRT2 (gene 22933) (UniProt Q8IXJ6); assay: NVS_ENZ_hSIRT2: NovaScreen (NVS) Enzymatic Assay for human Sirtuin 2 (SIRT2) (AID 2283217)
Outline: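 Single-point duplicate screen at 25 uM, then concentration-response (max 50 uM) for chemicals passing threshold. Enzyme activity of recombinant human SIRT2 measured after 1 hr by fluorescence with mobility-shift separation of product; DMSO baseline.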

[12] = read-out: ABC Transporter (ABCB1), ABCB1 (gene 5243); assay: CLD_ABCB1_6hr: CellzDirect (CLD) Gene Expression Assay for ABC Transporter (ABCB1) at 6 hours (AID 2283659)
Outline: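 ABCB1 transcript measured by quantitative nuclease protection assay, chemiluminescent read-out, 6 h after dosing human hepatocyte cultures (0.2% DMSO vehicle, daily redosing). Activity fitted as increase over DMSO baseline; cytotoxicity flagged by phase-contrast morphology.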

[13] = read-out: Cytochrome P450 3A4 (Homo sapiens) (UniProt P08684); assay: CLD_CYP3A4_24hr: CellzDirect (CLD) Gene Expression Assay for xenobiotic metabolism (CYP3A4) at 24 hours (AID 2283689)
Outline: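 CYP3A4 mRNA induction read by quantitative nuclease protection (chemiluminescence) 24 hr after dosing. Cultured human hepatocytes (two donor preparations) treated daily, vehicle 0.2% DMSO; phase-contrast morphology annotates cytotoxicity.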

[14] = read-out: Cytochrome P450 2B6 (Homo sapiens) (UniProt P20813); assay: CLD_CYP2B6_48hr: CellzDirect (CLD) Gene Expression Assay for xenobiotic metabolism (CYP2B6) at 48 hours (AID 2283699);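 further: actives raise transcript level above DMSO so potency reflects induction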
Outline: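 CYP2B6 transcript induction, read by quantitative nuclease protection (S1 digestion, chemiluminescent detection) 48 h after dosing, is fitted upward against 0.2% DMSO. Cultured human liver primary cells, two donor preparations, received fresh chemical daily over multiple concentrations.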

[15] = tested on: NCBI gene 100848466; assay: NVS_NR_bPR: NovaScreen (NVS) Nuclear Receptor Binding Assay for bovine Progextron Receptor (PR) (AID 2283343);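 on AC50: actives lower bound radioligand signal below DMSO meaning displacement of the label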
Outline: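 Competitive radioligand binding with membranes from bovine uterus, scintillation read-out at 18 h post-dose. Compounds first tested in duplicate at 25 uM, then actives in concentration series; loss-of-signal relative to DMSO.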

[16] = target: AR (gene 367) (UniProt P10275); assay: ACEA_AR_agonist_80hr: ACEA Biosciences xCELLigence Real-Time Cell Analysis on Androgen Receptor Agonism for Proliferation (AID 2283783);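 further: hits increase impedance growth signal above DMSO baseline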
Outline: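 Eight concentrations, 1:4 serial dilution from a 100 uM final top, in biological duplicate. Impedance-based real-time growth of 22Rv1 cells after overnight baseline, recorded hourly and read at 80 hours. Controls: testosterone, MG132, assay media.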

[17] = CCTE_Shafer_MEA_acute_LDH: CCTE's Lactate Dehydrogenase Assay for Cytotoxicity in the Neural Acute Assay, Shafer Lab (AID 2284086);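 further: active means LDH release rises above DMSO vehicle level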
Outline: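 Cytotoxicity readout: spectrophotometric LDH activity in supernatant of rat primary cortical neurons, post-plating day 13 or 15, sampled after 40 min compound exposure; signal gain relative to DMSO baseline.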

[18] = Tanguay_ZF_120hpf_PE_legacy: (Legacy) Oregon State University Tanguay Lab 120 Hour Post-fertilization zebrafish Assay for Pericardial Edema (AID 2283640);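 on AC50: potency for increased incidence of pericardial edema versus DMSO baseline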
Outline: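 Tropical 5D wild-type zebrafish embryos were exposed statically to 120 hpf at 28C, sealed and foil-covered, in 0.64% DMSO final. Pericardial edema was scored present/absent by brightfield microscopy; dead embryos were not scored.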

[19] = STM_H9_OrnCyssISnorm_ratio: Stemina devTOX quickPredict H9 human embryonic stem cell (hESC)-based Assay for Ornithine (ORN):Cystine (CYSS) Ratio (AID 2283714)
Outline: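 Ratio of internal-standard-normalized ornithine to cystine, measured by UPLC-HRMS in spent media from the last 24 h. H9 cells kept pluripotent, dosed 72 h with daily media and compound renewal; DMSO 0.1% serves as baseline.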

O=C(CCl)c1ccccc1
AC50 [1]: inconclusive: 10 µM
outcome [2]: inactive
AC50 [3]: inconclusive: 0.196 µM

CC(C)N(C(=O)SCC(Cl)=C(Cl)Cl)C(C)C
outcome [4]: inactive
outcome [5]: inactive
AC50 [6]: inconclusive: 37.3 µM

CC(C)Nc1nc(Cl)nc(NC(C)C)n1
AC50 [7]: inconclusive: 25 µM

CC1(C)CON(Cc2ccccc2Cl)C1=O
AC50 [4]: inconclusive: 25 µM
AC50 [8]: inconclusive: 169 µM
AC50 [9]: inconclusive: 20 µM

CCOP(=S)(OCC)Oc1ccc([N+](=O)[O-])cc1
outcome [10]: inactive
AC50 [5]: inconclusive: 25 µM
AC50 [9]: inconclusive: 20 µM

Fc1ccc(Oc2ccnc3cc(Cl)cc(Cl)c23)cc1
outcome [11]: inactive
AC50 [12]: inconclusive: 20 µM
AC50 [13]: inconclusive: 0.00964 µM
outcome [14]: inactive

O=C(O)COc1ccc(Cl)cc1Cl
AC50 [15]: inconclusive: 25 µM
AC50 [13]: inconclusive: 20 µM
outcome [6]: inactive
AC50 [14]: inconclusive: 0.000907 µM
AC50 [9]: inconclusive: 20 µM

CCOP(=S)(OCC)Oc1ccc2c(C)c(Cl)c(=O)oc2c1
AC50 [15]: active: 1.01 µM
AC50 [5]: inconclusive: 0.238 µM

COc1cc(OC)nc(Oc2cccc(Oc3nc(OC)cc(OC)n3)c2C(=O)O)n1
AC50 [16]: inconclusive: 0.314 µM

CCOC(=O)[C@]1(c2ccccc2)Oc2ccccc2[C@@H]1N
outcome [15]: inactive

CCOC(=O)CC(SP(=O)(OC)OC)C(=O)OCC (stereo not drawn)
outcome [2]: inactive
AC50 [8]: active: 16.5 µM
AC50 [17]: inconclusive: 20 µM

CCCC(=NOCC)C1=C(O)CC(CC(C)SCC)CC1=O (stereo not drawn)
AC50 [13]: active: 32.9 µM

Nc1nc(N)nc(NC2CC2)n1
AC50 [18]: inconclusive: 202 µM
outcome [6]: inactive
AC50 [14]: inconclusive: 20 µM

CCOP(=S)(OCC)Oc1nc(Cl)n(C(C)C)n1
outcome [18]: inactive
AC50 [6]: active: 0.652 µM

Cc1ccc(C)c2ccccc12
AC50 [16]: inconclusive: 0.612 µM

O=[N+]([O-])c1ccc(Cl)cc1
AC50 [2]: inconclusive: 25 µM

c1ccc(C2CO2)cc1 (stereo not drawn)
outcome [3]: inactive
outcome [8]: inactive

CN(C)N
AC50 [16]: inconclusive: 0.211 µM

CC1(C)[C@H](C(=O)O[C@H](C#N)c2cccc(Oc3ccccc3)c2)[C@@H]1/C=C(\Cl)C(F)(F)F
AC50 [17]: inconclusive: 12.9 µM

CCOc1ccc(C(C)(C)COCc2cccc(Oc3ccccc3)c2)cc1
AC50 [8]: inconclusive: 67.4 µM
AC50 [17]: inconclusive: 15 µM

CCC(=O)Nc1ccc(Cl)c(Cl)c1
AC50 [9]: inconclusive: 36.2 µM
AC50 [16]: inconclusive: 50 µM

N#CS
AC50 [19]: inconclusive: 50 µM

Oc1ccccc1Cl
outcome [4]: inactive
AC50 [8]: inconclusive: 202 µM
AC50 [18]: inconclusive: 202 µM

COP(=O)(OC)OC
AC50 [16]: inconclusive: 16.6 µM

CC(C)NCC(O)c1ccc(O)c(O)c1 (stereo not drawn)
AC50 [1]: active: 2.13 µM

CCCCCCCCCC(=O)O
AC50 [1]: active: 2.83 µM

O=C(O)C(F)(F)C(F)(F)C(F)(F)C(F)(F)C(F)(F)C(F)(F)C(F)(F)F
outcome [1]: inactive
AC50 [7]: inconclusive: 25 µM
AC50 [2]: active: 0.493 µM
AC50 [3]: inconclusive: 0.38 µM
AC50 [15]: inconclusive: 25 µM
outcome [15]: inactive
AC50 [13]: active: 20 µM
outcome [9]: inactive
AC50 [19]: inconclusive: 90.3 µM

FC(F)(F)C(F)(F)C(F)(F)C(F)(F)C(F)(F)C(F)(F)CCI
AC50 [1]: inconclusive: 8.72 µM

C/C=C/C=C/C(=O)O
AC50 [1]: inconclusive: 10 µM
